Measured values from patent publication US20220372114A1.
No constants are given. Whether binding was seen depends on the method and setting. Some binding calls cover weakened binding; strength is not graded here.

What was measured:
[1] = target: SARS-CoV-2 S2 domain (SARS-CoV-2 (WIV02 isolate)) (UniProt P0DTC2); test: ELISA
[2] = target: SARS-CoV-2 S2 domain (SARS-CoV-2 (WIV02 isolate)) (UniProt P0DTC2); test: ELISA (FIG. 2)

B1: 10-B11-A (antibody, V domains shown)
VH: QVQLQQPGAELVKPGASVKVSCKASGYTFTSYWMHWVKQRPGQGLEWIGRIHPSDSDTNYYQKFKGKATLSVDKSSSTAYMQLSSLTSEDSAVYYCAIPLYSYDNSGGYYPMDYWGQGTSVTVSS
VL: DIVMTQSQKFMSTSVGDRVTITCKASQNVRTAVAWYQQKPGQSPKKLIYLASNRHTGVPDRFTGSGSGTDFTLAISNVQSEDLADYFCLQHWNYPFTFGSGTRLEIK
[1]
  binding: binds
[2]
  binding: binds
